Results reported in PMC10005955.
No constants are given. Whether binding was seen depends on the method and setting. In cells and extracts the contact can be indirect. These calls come from enrichment with a bait or labelling near it, and not all partners need be listed.

Amino acid sequences for entries named in this document (tags omitted).
UniProt Q9UHY1: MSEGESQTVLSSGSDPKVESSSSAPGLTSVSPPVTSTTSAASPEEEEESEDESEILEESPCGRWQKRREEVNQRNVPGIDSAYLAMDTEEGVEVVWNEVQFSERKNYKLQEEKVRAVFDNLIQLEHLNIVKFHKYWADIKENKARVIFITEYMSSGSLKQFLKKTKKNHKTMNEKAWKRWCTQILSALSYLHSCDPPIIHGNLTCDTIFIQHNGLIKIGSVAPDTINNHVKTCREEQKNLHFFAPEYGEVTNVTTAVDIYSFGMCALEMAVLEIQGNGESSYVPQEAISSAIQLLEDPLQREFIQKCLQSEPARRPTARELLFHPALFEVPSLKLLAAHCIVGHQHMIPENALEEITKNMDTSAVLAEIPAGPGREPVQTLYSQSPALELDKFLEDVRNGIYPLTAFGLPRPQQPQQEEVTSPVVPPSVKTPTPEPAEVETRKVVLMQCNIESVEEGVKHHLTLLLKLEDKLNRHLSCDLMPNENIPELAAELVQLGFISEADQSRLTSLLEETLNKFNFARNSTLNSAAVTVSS
UniProt Q8TCU6: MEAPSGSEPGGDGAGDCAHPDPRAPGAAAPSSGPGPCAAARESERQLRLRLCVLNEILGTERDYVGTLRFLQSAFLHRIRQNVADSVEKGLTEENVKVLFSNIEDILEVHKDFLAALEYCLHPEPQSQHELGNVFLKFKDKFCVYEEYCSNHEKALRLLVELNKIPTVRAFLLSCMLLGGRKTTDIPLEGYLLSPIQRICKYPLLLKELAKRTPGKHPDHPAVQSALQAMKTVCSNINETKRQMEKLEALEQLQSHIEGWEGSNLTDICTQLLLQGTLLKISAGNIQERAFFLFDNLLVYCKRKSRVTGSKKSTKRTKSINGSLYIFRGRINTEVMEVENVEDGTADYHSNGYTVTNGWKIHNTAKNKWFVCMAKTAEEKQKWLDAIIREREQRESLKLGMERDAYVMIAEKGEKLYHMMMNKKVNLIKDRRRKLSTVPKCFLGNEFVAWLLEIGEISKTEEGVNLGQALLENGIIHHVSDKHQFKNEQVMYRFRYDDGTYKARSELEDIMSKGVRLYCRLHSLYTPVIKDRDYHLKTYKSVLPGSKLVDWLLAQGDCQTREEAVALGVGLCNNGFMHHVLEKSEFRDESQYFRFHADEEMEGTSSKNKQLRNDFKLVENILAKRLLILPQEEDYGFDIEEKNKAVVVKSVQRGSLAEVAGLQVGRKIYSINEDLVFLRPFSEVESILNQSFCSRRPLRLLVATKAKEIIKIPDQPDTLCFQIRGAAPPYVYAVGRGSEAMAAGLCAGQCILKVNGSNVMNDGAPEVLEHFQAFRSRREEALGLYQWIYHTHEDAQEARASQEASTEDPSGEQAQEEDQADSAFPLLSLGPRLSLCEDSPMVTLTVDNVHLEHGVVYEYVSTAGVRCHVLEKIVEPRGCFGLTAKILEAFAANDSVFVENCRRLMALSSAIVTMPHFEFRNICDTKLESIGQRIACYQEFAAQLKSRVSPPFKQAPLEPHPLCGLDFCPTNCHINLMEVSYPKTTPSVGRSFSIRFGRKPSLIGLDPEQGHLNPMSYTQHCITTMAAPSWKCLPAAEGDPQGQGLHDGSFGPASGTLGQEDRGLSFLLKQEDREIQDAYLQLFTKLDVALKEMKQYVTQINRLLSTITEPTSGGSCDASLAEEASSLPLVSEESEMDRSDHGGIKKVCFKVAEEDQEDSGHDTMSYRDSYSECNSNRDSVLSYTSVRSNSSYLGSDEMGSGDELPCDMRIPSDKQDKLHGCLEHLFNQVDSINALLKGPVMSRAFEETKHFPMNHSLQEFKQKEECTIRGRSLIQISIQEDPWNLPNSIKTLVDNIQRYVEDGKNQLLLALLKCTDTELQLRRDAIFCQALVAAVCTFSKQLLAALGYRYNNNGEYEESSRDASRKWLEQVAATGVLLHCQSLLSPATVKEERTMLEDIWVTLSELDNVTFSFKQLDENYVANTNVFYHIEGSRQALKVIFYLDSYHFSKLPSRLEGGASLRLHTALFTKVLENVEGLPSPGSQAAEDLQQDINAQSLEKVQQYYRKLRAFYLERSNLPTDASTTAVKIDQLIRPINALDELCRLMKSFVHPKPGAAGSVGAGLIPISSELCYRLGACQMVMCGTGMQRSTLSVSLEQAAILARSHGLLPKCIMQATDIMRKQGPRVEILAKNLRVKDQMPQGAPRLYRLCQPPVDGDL
UniProt Q15370: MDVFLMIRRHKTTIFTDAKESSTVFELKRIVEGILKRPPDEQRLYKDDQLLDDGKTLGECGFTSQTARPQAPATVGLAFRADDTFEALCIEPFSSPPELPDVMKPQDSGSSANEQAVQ

Target: mycBioID2-NRBP1 (UniProt Q9UHY1)
Assay: proximity labelling; BioID-MS: mycBioID2-NRBP1 stably expressed in MDA-MB-231_EcoR cells, 50 µM biotin for 20 h at 37 °C, modified RIPA lysate, streptavidin agarose beads at 4 °C for 22 h, MS; compared with the vector control, n = 3

Row | Molecule | binding
1 | P-Rex1 (from UniProt Q8TCU6 1-1659) | binds
2 | Peroxiredoxin 3 (protein, UniProt P30048 62-256) APAVTQHAPYFKGTAVVNGEFKDLSLDDFKGKYLVLFFYPLDFTFVCPTEIVAFSDKANEFHDVNCEVVAVSVDSHFSHLAWINTPRKNGGLGHMNIALLSDLTKQISRDYGVLLEGSGLALRGLFIIDPNGVIKHLSVNDLPVGRSVEETLRLVKAFQYVETHGEVCPANWTPDSPTIKPSPAASKEYFQKVNQ | binds
3 | Peroxiredoxin 1 (protein, UniProt Q06830 1-199) MSSGNAKIGHPAPNFKATAVMPDGQFKDISLSDYKGKYVVFFFYPLDFTFVCPTEIIAFSDRAEEFKKLNCQVIGASVDSHFCHLAWVNTPKKQGGLGPMNIPLVSDPKRTIAQDYGVLKADEGISFRGLFIIDDKGILRQITVNDLPVGRSVDETLRLVQAFQFTDKHGEVCPAGWKPGSDTIKPDVQKSKEYFSKQK | binds
4 | Peroxiredoxin 2 (protein, UniProt P32119 1-198) MASGNARIGKPAPDFKATAVVDGAFKEVKLSDYKGKYVVLFFYPLDFTFVCPTEIIAFSNRAEDFRKLGCEVLGVSVDSQFTHLAWINTPRKEGGLGPLNIPLLADVTRRLSEDYGVLKTDEGIAYRGLFIIDGKGVLRQITVNDLPVGRSVDEALRLVQAFQYTDEHGEVCPAGWKPGSDTIKPNVDDSKEYFSKHN | binds

The remaining lines, values ahead:

Row | binding | Molecule
5 | binds | TCEB2 (Elongin C) (from UniProt Q15370 1-118)
6 | binds | TSC22D1 (protein, UniProt Q15714 1-1073) MHQPPESTAAAAAAADISARKMAHPAMFPRRGSGSGSASALNAAGTGVGSNATSSEDFPPPSLLQPPPPAASSTSGPQPPPPQSLNLLSQAQLQAQPLAPGGTQMKKKSGFQITSVTPAQISASISSNNSIAEDTESYDDLDESHTEDLSSSEILDVSLSRATDLGEPERSSSEETLNNFQEAETPGAVSPNQPHLPQPHLPHLPQQNVVINGNAHPHHLHHHHQIHHGHHLQHGHHHPSHVAVASASITGGPPSSPVSRKLSTTGSSDSITPVAPTSAVSSSGSPASVMTNMRAPSTTGGIGINSVTGTSTVNNVNITAVGSFNPNVTSSMLGNVNISTSNIPSAAGVSVGPGVTSGVNVNILSGMGNGTISSSAAVSSVPNAAAGMTGGSVSSQQQQPTVNTSRFRVVKLDSSSEPFKKGRWTCTEFYEKENAVPATEGVLINKVVETVKQNPIEVTSERESTSGSSVSSSVSTLSHYTESVGSGEMGAPTVVVQQQQQQQQQQQQQPALQGVTLQQMDFGSTGPQSIPAVSIPQSISQSQISQVQLQSQELSYQQKQGLQPVPLQATMSAATGIQPSPVNVVGVTSALGQQPSISSLAQPQLPYSQAAPPVQTPLPGAPPPQQLQYGQQQPMVSTQMAPGHVKSVTQNPASEYVQQQPILQTAMSSGQPSSAGVGAGTTVIPVAQPQGIQLPVQPTAVPAQPAGASVQPVGQAPAAVSAVPTGSQIANIGQQANIPTAVQQPSTQVPPSVIQQGAPPSSQVVPPAQTGIIHQGVQTSAPSLPQQLVIASQSSLLTVPPQPQGVEPVAQGIVSQQLPAVSSLPSASSISVTSQVSSTGPSGMPSAPTNLVPPQNIAQTPATQNGNLVQSVSQPPLIATNTNLPLAQQIPLSSTQFSAQSLAQAIGSQIEDARRAAEPSLVGLPQTISGDSGGMSAVSDGSSSSLAASASLFPLKVLPLTTPLVDGEDESSSGASVVAIDNKIEQAMDLVKSHLMYAVREEVEVLKEQIKELIEKNSQLEQENNLLKTLASPEQLAQFQAQLQTGSPPATTQPQGTTQPPAQPASQGSGPTA
7 | binds | TSC22D4 (protein, UniProt Q9Y3Q8 1-395) MSGGKKKSSFQITSVTTDYEGPGSPGASDPPTPQPPTGPPPRLPNGEPSPDPGGKGTPRNGSPPPGAPSSRFRVVKLPHGLGEPYRRGRWTCVDVYERDLEPHSFGGLLEGIRGASGGAGGRSLDSRLELASLGLGAPTPPSGLSQGPTSWLRPPPTSPGPQARSFTGGLGQLVVPSKAKAEKPPLSASSPQQRPPEPETGESAGTSRAATPLPSLRVEAEAGGSGARTPPLSRRKAVDMRLRMELGAPEEMGQVPPLDSRPSSPALYFTHDASLVHKSPDPFGAVAAQKFSLAHSMLAISGHLDSDDDSGSGSLVGIDNKIEQAMDLVKSHLMFAVREEVEVLKEQIRELAERNAALEQENGLLRALASPEQLAQLPSSGVPRLGPPAPNGPSV
8 | binds | Thioredoxin-like 1 (TXNL1) (protein, UniProt O43396 1-289) MVGVKPVGSDPDFQPELSGAGSRLAVVKFTMRGCGPCLRIAPAFSSMSNKYPQAVFLEVDVHQCQGTAATNNISATPTFLFFRNKVRIDQYQGADAVGLEEKIKQHLENDPGSNEDTDIPKGYMDLMPFINKAGCECLNESDEHGFDNCLRKDTTFLESDCDEQLLITVAFNQPVKLYSMKFQGPDNGQGPKYVKIFINLPRSMDFEEAERSEPTQALELTEDDIKEDGIVPLRYVKFQNVNSVTIFVQSNQGEEETTRISYFTFIGTPVQATNMNDFKRVVGKKGESH
